Drawing on PMC6113271, this text covers binding for one substance.

Chains of the proteins cited; added tags and fusions are not shown.
UniProt Q9JIF0: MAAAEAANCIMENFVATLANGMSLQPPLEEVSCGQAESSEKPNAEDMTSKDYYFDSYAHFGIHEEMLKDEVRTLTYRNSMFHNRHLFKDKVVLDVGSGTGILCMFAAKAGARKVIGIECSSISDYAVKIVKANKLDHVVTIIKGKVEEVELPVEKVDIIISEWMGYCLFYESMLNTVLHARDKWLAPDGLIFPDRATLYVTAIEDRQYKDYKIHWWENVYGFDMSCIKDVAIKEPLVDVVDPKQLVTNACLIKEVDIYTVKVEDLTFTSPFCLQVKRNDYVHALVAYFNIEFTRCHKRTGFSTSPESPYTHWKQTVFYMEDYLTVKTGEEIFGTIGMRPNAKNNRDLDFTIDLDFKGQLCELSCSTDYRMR
UniProt Q04207: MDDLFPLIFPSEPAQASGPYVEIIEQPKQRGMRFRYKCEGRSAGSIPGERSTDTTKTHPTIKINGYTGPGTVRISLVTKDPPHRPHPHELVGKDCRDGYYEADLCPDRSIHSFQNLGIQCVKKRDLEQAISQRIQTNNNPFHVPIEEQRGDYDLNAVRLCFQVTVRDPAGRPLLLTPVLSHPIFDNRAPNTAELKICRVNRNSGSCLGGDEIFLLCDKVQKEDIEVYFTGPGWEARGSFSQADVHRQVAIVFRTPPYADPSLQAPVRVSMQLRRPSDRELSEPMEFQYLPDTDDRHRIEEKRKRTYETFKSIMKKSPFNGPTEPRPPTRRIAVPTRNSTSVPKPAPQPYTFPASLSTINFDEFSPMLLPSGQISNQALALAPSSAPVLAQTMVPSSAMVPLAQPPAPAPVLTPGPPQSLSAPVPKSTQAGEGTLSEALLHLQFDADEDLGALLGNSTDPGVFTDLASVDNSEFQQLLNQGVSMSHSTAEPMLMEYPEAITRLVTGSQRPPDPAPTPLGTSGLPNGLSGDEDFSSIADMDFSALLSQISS

No constants are given. Whether binding was seen depends on the method and setting. In cells and extracts the contact can be indirect. Some binding calls cover weakened binding; strength is not graded here.

This assay has as its target Protein arginine methyltransferase 1 (PRMT1) (mouse (endogenous in RAW 264.7)) (UniProt Q9JIF0). Put plainly: co-IP; RAW 264.7 cells with or without RANKL (100 ng/ml) in the presence of M-CSF (30 ng/ml) for 24 h; non-denaturing lysis buffer (20 mM Tris pH 7.4, 150 mM NaCl, 1% NP-40, 1 mM EDTA, 5% glycerol); 200 μg protein with PRMT1 antibody and protein G agarose, 24 h at 4 °C; immunoblotting. A general note: A western blot detects proteins with antibodies after separation by electrophoresis.

For “NF-κB subunit p65 (from UniProt Q04207 1-549)”, the binding entry was “binds”.
